Data on 13 molecules can be found in the supplement of paper PMC4604168 (melanoma cell lines).

SMILES strings stand for the structures. The list shows a part of the results. Many values rest on one well or one pass, so single values are uncertain.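 The apoptosis fraction was the count of cleaved-PARP antibody-stained nuclei relative to all DNA-stained nuclei, imaged in 1,536-well plates. Screening doses were set so most cells survived, and baseline and induced cleaved-PARP levels vary greatly across cell lines.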

This experiment concerns SkMel30. As to the kind of experiment: cleaved PARP positive nuclei fraction relative to DMSO control; melanoma cells; higher = more apoptosis. The settings on record: library dose: low library concentration; 72 h.
Consider `COc1ccc(C2=N[C@@H](c3ccc(Cl)cc3)[C@@H](c3ccc(Cl)cc3)N2C(=O)N2CCNC(=O)C2)c(OC(C)C)c1` [Nutlin-3] + Nc1nc(F)nc2c1ncn2[C@@H]1O[C@H](CO)[C@@H](O)[C@@H]1O [fludarabine] (first compound 0.1 µM, partner dose 0.2 µM), for which the “cleaved PARP positive nuclei fraction” value amounted to 820%.

For `CCN(CC)CCNC(=O)c1c(C)[nH]c(/C=C2\C(=O)Nc3ccc(F)cc32)c1C` [sunitinib] + C=C(c1ccc(C(=O)O)cc1)c1cc2c(cc1C)C(C)(C)CCC2(C)C [Bexarotene] (first compound 0.4 µM, partner dose 2 µM), the “cleaved PARP positive nuclei fraction” value worked out at 43.6%.

In the case of `NC(=O)c1ccc(N(C(N)=O)c2c(F)cccc2F)nc1-c1ccc(F)cc1F` + Cn1nnc2c(C(N)=O)ncn2c1=O [temozolomide] (first compound 0.4 µM, partner dose 2 µM), the “cleaved PARP positive nuclei fraction” value came out at 90.9%.

For `CC1(C)CCC(c2ccc(Cl)cc2)=C(CN2CCN(c3ccc(C(=O)NS(=O)(=O)c4ccc(N[C@H](CCN5CCOCC5)CSc5ccccc5)c(S(=O)(=O)C(F)(F)F)c4)cc3)CC2)C1` + CN(c1ncccc1CNc1nc(Nc2ccc3c(c2)CC(=O)N3)ncc1C(F)(F)F)S(C)(=O)=O [PF562271] (first compound 0.4 µM, partner dose 0.08 µM), the “cleaved PARP positive nuclei fraction” value worked out at 191%.

As for `Cn1sc(=O)n(Cc2ccccc2)c1=O` + CC(C)C[C@H](NC(=O)[C@H](Cc1ccccc1)NC(=O)c1cnccn1)B(O)O [Bortezomib] (first compound 0.4 µM, partner dose 0.001 µM), the “cleaved PARP positive nuclei fraction” value was determined as 97.2%.

As for `C[C@]1(O)C[C@@H](c2nc(-c3ccc4ccc(-c5ccccc5)nc4c3)c3c(N)nccn32)C1` + C=CCn1c(=O)c2cnc(Nc3ccc(N4CCN(C)CC4)cc3)nc2n1-c1cccc(C(C)(C)O)n1 [MK1775] (first compound 0.4 µM, partner dose 0.02 µM), the “cleaved PARP positive nuclei fraction” value came to 105%.

In the case of `CS(=O)(=O)c1ccc(C(=O)Nc2ccc(Cl)c(-c3ccccn3)c2)c(Cl)c1` [vismodegib] + C[C@@H](Oc1cc(-c2cnn(C3CCNCC3)c2)cnc1N)c1c(Cl)ccc(F)c1Cl [Crizotinib] (first compound 1 µM, partner dose 0.2 µM), the “cleaved PARP positive nuclei fraction” value was found to be 50.2%.

Turning to `CN(c1ncccc1CNc1nc(Nc2ccc3c(c2)CC(=O)N3)ncc1C(F)(F)F)S(C)(=O)=O` + Oc1cc(-c2nc(-c3ccccc3)[nH]c2-c2ccncc2)ccc1Cl [L779450] (first compound 0.08 µM, partner dose 0.2 µM), the “cleaved PARP positive nuclei fraction” value amounted to 248%.

`NC(=O)c1ccc(N(C(N)=O)c2c(F)cccc2F)nc1-c1ccc(F)cc1F` + COc1ccc(Cl)c(Nc2nc3ccccc3nc2NS(=O)(=O)c2cccc(NC(=O)C(C)(C)N)c2)c1 [XL147] (first compound 0.4 µM, partner dose 0.8 µM): the “cleaved PARP positive nuclei fraction” value amounted to 22%.

Consider `CN(c1ncccc1CNc1nc(Nc2ccc3c(c2)CC(=O)N3)ncc1C(F)(F)F)S(C)(=O)=O` + Cc1cc(Nc2cc(N3CCN(C)CC3)nc(/C=C/c3ccccc3)n2)n[nH]1 [ENMD2076] (first compound 0.08 µM, partner dose 0.04 µM), for which the “cleaved PARP positive nuclei fraction” value came to 74.9%.

Consider `CCCCCCCCc1ccc(CCC(N)(CO)CO)cc1` [fingolimod] + c1cc(-c2cnn3cc(-c4ccc(OCCN5CCCCC5)cc4)cnc23)ccn1 [Dorsomorphin] (first compound 2 µM, partner dose 0.4 µM), for which the “cleaved PARP positive nuclei fraction” value is 68.1%.

In the case of `CS(=O)(=O)c1ccc(C(=O)Nc2ccc(Cl)c(-c3ccccn3)c2)c(Cl)c1` [vismodegib] + CC(=O)O[C@@]12CO[C@@H]1C[C@H](O)[C@@]1(C)C(=O)[C@H](O)C3=C(C)[C@@H](OC(=O)[C@H](O)[C@@H](NC(=O)OC(C)(C)C)c4ccccc4)C[C@@](O)([C@@H](OC(=O)c4ccccc4)[C@H]21)C3(C)C [Docetaxel] (first compound 1 µM, partner dose 0.0001 µM), the “cleaved PARP positive nuclei fraction” value is 176%.

For `CC(=O)O[C@@]12CO[C@@H]1C[C@H](O)[C@@]1(C)C(=O)[C@H](O)C3=C(C)[C@@H](OC(=O)[C@H](O)[C@@H](NC(=O)OC(C)(C)C)c4ccccc4)C[C@@](O)([C@@H](OC(=O)c4ccccc4)[C@H]21)C3(C)C` [Docetaxel] + COc1cc(Nc2ncc(F)c(Nc3ccc4c(n3)NC(=O)C(C)(C)O4)n2)cc(OC)c1OC [Tamatinib] (first compound 0.0001 µM, partner dose 0.4 µM), the “cleaved PARP positive nuclei fraction” value was 226%.
